Here are results for 74 compounds from the supplement of paper PMC10663445.

Where a name gives a salt, the structure may show the parent alone. The list shows a part of the results. Repeats are few or missing, and single values can be far off.

The test system of this test is hsa-miR-132-3p. Put plainly: miR-132-3p level in NGN2-iNs after compound treatment (TMM-normalised, ComBat batch-corrected) (batch-corrected normalised expression (arbitrary units)); higher = higher miR-132-3p expression. Particulars: 10 µM; 24 h; human iPSC-derived NGN2 neurons (BR43).
As for `CCCC(=O)Nc1cccc(NC(=O)c2ccccc2Br)c1` [ML161 (Parmodulin 2)], the “miR-132-3p level in NGN2-iNs” value was -0.0616.
As for `CO[C@H]1C[C@@H]2CC[C@@H](C)[C@@](O)(O2)C(=O)C(=O)N2CCCC[C@H]2C(=O)O[C@H]([C@H](C)C[C@@H]2CC[C@H](n3cnnn3)[C@H](OC)C2)CC(=O)[C@H](C)/C=C(\C)[C@@H](O)[C@@H](OC)C(=O)[C@H](C)C[C@H](C)/C=C/C=C/C=C/1C` [Zotarolimus(ABT-578)], the figure is -1.02; as for `COc1cc2ncnc(Nc3ccc(O)c(Br)c3)c2cc1OC`, 0.39.
In the case of `O=C(O)c1ccc(O)c2ncccc12`, the “miR-132-3p level in NGN2-iNs” value worked out at 1.21.
The value for `Nc1ccccc1NC(=O)c1ccc(CNc2nccc(-c3cccnc3)n2)cc1` [Mocetinostat (MGCD0103)] was 0.293; that for `CC[C@H](C)C(=O)O[C@H]1C[C@H](O)C=C2C=C[C@H](C)[C@H](CC[C@@H](O)C[C@@H](O)CC(=O)O)[C@H]21` [Pravastatin sodium] was 1.86.
Turning to `CC1=C(C(=O)O)N2C(=O)[C@@H](NC(=O)[C@H](N)c3ccccc3)[C@H]2SC1` [Cephalexin], the “miR-132-3p level in NGN2-iNs” value is -0.848.
The value for `COc1ccc2c(c1)c(CC(=O)OCC(=O)O)c(C)n2C(=O)c1ccc(Cl)cc1` [Acemetacin] was 1.38; that for `Cc1nccn1CC1CCc2c(c3ccccc3n2C)C1=O` (centres undefined) [Ondansetron HCl] was 0.32; that for `CC(=O)NC[C@H]1CN(c2ccc(N3CCOCC3)c(F)c2)C(=O)O1` [Linezolid] was -0.0165.
Take `COc1cc2c(cc1Cc1cccc(Cl)c1F)c(=O)c(C(=O)O)cn2[C@H](CO)C(C)C` [Elvitegravir (GS-9137, JTK-303)]: the “miR-132-3p level in NGN2-iNs” value is -1.07.
The value for `COc1ccc2cc3[n+](cc2c1OC)CCc1cc2c(cc1-3)OCO2` [Berberine chloride] was -1.3; that for `CCCCC1C(=O)N(c2ccccc2)N(c2ccccc2)C1=O` [Phenylbutazone] was -0.145; that for `CN(C)c1cc(NC(=O)CNC(C)(C)C)c(O)c2c1CC1CC3C(N(C)C)C(=O)C(C(N)=O)=C(O)C3(O)C(=O)C1=C2O` (centres undefined) [Tigecycline] was 0.219.
For `CC(=O)/N=c1/sc(S(N)(=O)=O)nn1C` [Methazolamide], the “miR-132-3p level in NGN2-iNs” value turned out to be 0.00627.
The value for `[Cl][Pt+2][Cl].[NH2-].[NH2-]` was -0.223; that for `CCCc1nc2c(C)cc(-c3nc4ccccc4n3C)cc2n1Cc1ccc(-c2ccccc2C(=O)O)cc1` [Telmisartan] was -0.0899; that for `COCCCOc1cc(C[C@@H](C[C@H](N)[C@@H](O)C[C@H](C(=O)NCC(C)(C)C(N)=O)C(C)C)C(C)C)ccc1OC` [Aliskiren Hemifumarate] was 0.309.
`CCC(CC)(NC(=O)C(C)C)C(=O)N[C@@H](CCCN=C(N)N)C(=O)NC1(C(=O)NC(c2ccc(F)cc2)c2ccc(F)cc2)CCCC1`: the “miR-132-3p level in NGN2-iNs” value was -0.51.
Take `O=C(O)Cc1cc(I)c(Oc2ccc(O)c(I)c2)c(I)c1` [Tiratricol]: the “miR-132-3p level in NGN2-iNs” value was 0.258.
The value for `NS(=O)(=O)C#Cc1ccccc1` [Pifithrin-μ] was -0.514; that for `Cc1ccc(C(=O)C(C)CN2CCCCC2)cc1` (centres undefined) [Tolperisone HCl] was -0.231; that for `C[C@@H]1O[C@@H](O[C@H]2[C@H](Oc3cc(O)c4c(c3)O[C@H](c3ccc(O)cc3)CC4=O)O[C@H](CO)[C@@H](O)[C@@H]2O)[C@H](O)[C@H](O)[C@H]1O` [Naringin] was -0.135.
Regarding `N[C@@H](CC(=O)N1CCn2c(nnc2C(F)(F)F)C1)Cc1cc(F)c(F)cc1F` [Sitagliptin phosphate monohydrate], the “miR-132-3p level in NGN2-iNs” value is -0.729.
As for `Cn1cc(/C=C/C(=O)c2cccc(F)c2)cc1/C=C/C(=O)NO`, the figure is -0.115.
As for `Nc1nccc2c1ncn2C1C=C(CO)C(O)C1O` (centres undefined) [3-Deazaneplanocin A (DZNeP)], the figure is -1.06; as for `CO/N=C(\C(=O)N[C@@H]1C(=O)N2C(C(=O)O)=C(CSC(=O)c3ccco3)CS[C@H]12)c1csc(N)n1` [Ceftiofur HCl], -0.587; as for `CN1[C@@H]2CC[C@H]1C[C@@H](OC(c1ccccc1)c1ccccc1)C2` [Benztropine mesylate], -0.624.
For the compound `C[C@@H]1O[C@@H](OC[C@H]2O[C@@H](Oc3c(-c4ccc(O)c(O)c4)oc4cc(O)cc(O)c4c3=O)[C@H](O)[C@@H](O)[C@@H]2O)[C@H](O)[C@H](O)[C@H]1O` [Rutin], the “miR-132-3p level in NGN2-iNs” value was -0.339.
As for `CCCC(=O)Nc1ccc(OCC(O)CNC(C)C)c(C(C)=O)c1` (centres undefined) [Acebutolol HCl], the figure is 0.22.
As for `COc1ccnc2[nH]cc(C(=O)C(=O)N3CCN(C(=O)c4ccccc4)C[C@H]3C)c12`, the figure is 0.656; as for `NC(=O)Nc1sc(-c2ccc(F)cc2)cc1C(N)=O`, -0.148; as for `C[C@H](CCC(=O)O)[C@H]1CC[C@H]2[C@@H]3C[C@H](O)[C@@H]4C[C@H](O)CC[C@]4(C)[C@H]3CC[C@]12C` [Hyodeoxycholic acid (HDCA)], -1.21.
On to `CCCCOc1ccc(CC(=O)NO)cc1` [Bufexamac], for which the “miR-132-3p level in NGN2-iNs” value was -0.188.
The value for `Cc1ccc(O)c([C@H](CCN(C(C)C)C(C)C)c2ccccc2)c1` [Tolterodine tartrate] was -0.371.
Take `Cc1cc(C)cc(NC(=O)Cc2ccc(OC(C)(C)C(=O)O)cc2)c1` [Efaproxiral Sodium]: the “miR-132-3p level in NGN2-iNs” value is -0.484.
With `CC(C)NCCCn1c(Sc2cc3c(cc2I)OCO3)nc2c(N)ncnc21` [Zelavespib (PU-H71)], the “miR-132-3p level in NGN2-iNs” value is -2.59.
As for `CN(C)CCC(c1ccccc1)c1ccccn1` (centres undefined) [Pheniramine Maleate], the figure is -0.222; as for `Cc1cccc(Nc2nc(-c3ccncc3)cs2)c1`, 0.384.
As for `Cc1c(O)cccc1C(=O)N[C@@H](CSc1ccccc1)[C@H](O)CN1C[C@H]2CCCC[C@H]2C[C@H]1C(=O)NC(C)(C)C` [Nelfinavir Mesylate], the figure is 0.393; as for `O=c1cc(CN2CCOCC2)occ1OCCCCCSc1ccnc2cc(C(F)(F)F)ccc12`, -0.615; as for `O[C@@H]1CO[C@H]2[C@@H]1OC[C@@H]2O` [Isosorbide], 0.472.
On to `CCOc1ccc(Cc2cc([C@@H]3O[C@H](CO)[C@@H](O)[C@H](O)[C@H]3O)ccc2Cl)cc1` [Dapagliflozin], for which the “miR-132-3p level in NGN2-iNs” value was -0.967.
As for `CN(C)CCN1C(=O)c2cccc3cc(N)cc(c23)C1=O` [Amonafide], the “miR-132-3p level in NGN2-iNs” value is 0.618.
In the case of `CCN(CCCc1ccccc1)CCCc1ccccc1` [Alverine Citrate], the “miR-132-3p level in NGN2-iNs” value came out at 0.337.
As for `O=C(O)c1ccc(N2C(=O)C(=Cc3ccc(-c4ccc([N+](=O)[O-])cc4)o3)C=C2c2ccccc2)cc1`, the “miR-132-3p level in NGN2-iNs” value is -0.647.
For `CC[C@]1(O)C[C@@H]2CN(CCc3c([nH]c4ccccc34)[C@@](C(=O)OC)(c3cc4c(cc3OC)N(C)[C@H]3[C@@](O)(C(=O)OC)[C@H](OC(C)=O)[C@]5(CC)C=CCN6CC[C@]43[C@@H]65)C2)C1` [Vinblastine], the “miR-132-3p level in NGN2-iNs” value stood at 0.989.
For the compound `O=S(=O)(O)CCSSCCS(=O)(=O)O` [Dimesna], the “miR-132-3p level in NGN2-iNs” value was -0.034.
As for `CO[C@H]1C(=O)[C@]2(C)[C@@H](OC)C[C@H]3OC[C@@]3(OC(C)=O)[C@H]2[C@H](OC(=O)c2ccccc2)[C@]2(O)C[C@H](OC(=O)[C@H](O)[C@@H](NC(=O)OC(C)(C)C)c3ccccc3)C(C)=C1C2(C)C` [Cabazitaxel], the figure is -1.22; as for `Cc1cc(N2CCOCC2)cc2[nH]c(-c3c(NCC(O)c4cccc(Cl)c4)cc[nH]c3=O)nc12` (centres undefined), -0.579; as for `NC(=O)NO` [Hydroxyurea], -0.298.
As for `Cc1c(Cn2c(C)nc3c(C(=O)O)cc(N4CCOCC4)cc32)cccc1C(F)(F)F`, the figure is -0.039; as for `CCCCCCCCCCCCCCCC[N+](C)(C)C` [Cetrimonium Bromide (CTAB)], 0.504; as for `CCCc1nc(C(C)(C)O)c(C(=O)OCc2oc(=O)oc2C)n1Cc1ccc(-c2ccccc2-c2nnn[nH]2)cc1` [Olmesartan Medoxomil], -0.38.
For `Nc1nccs1` [Aminothiazole], the “miR-132-3p level in NGN2-iNs” value was -0.426.
As for `NC(=O)c1cccnc1` [Nicotinamide (Vitamin B3)], the figure is 0.413; as for `CC(C)(Oc1ccc(C2CC2(Cl)Cl)cc1)C(=O)O` (centres undefined) [Ciprofibrate], -0.412; as for `Nc1nc(Nc2ccc(S(N)(=O)=O)cc2)nn1C(=O)c1c(F)cccc1F`, 0.197.
On to `CC(C)c1onc(-c2c(Cl)cccc2Cl)c1COc1ccc(/C=C/c2cccc(C(=O)O)c2)c(Cl)c1`, for which the “miR-132-3p level in NGN2-iNs” value is -0.257.
As for `C=CCN1CCCC1CNC(=O)c1cc2nn[nH]c2cc1OC` (centres undefined) [Alizapride HCl], the figure is 0.0651; as for `NC(=O)[C@@H](CCC(F)(F)F)N(Cc1ccc(-c2ncon2)cc1F)S(=O)(=O)c1ccc(Cl)cc1`, 0.138.
As for `N#CC(=C(/N)Sc1ccccc1N)/C(C#N)=C(\N)Sc1ccccc1N`, the figure is -0.0428; as for `CCCNS(=O)(=O)Nc1ncnc(OCCOc2ncc(Br)cn2)c1-c1ccc(Br)cc1` [Macitentan], -0.481; as for `Nc1ccc(S(N)(=O)=O)cc1` [Sulfanilamide], 0.988.
As for `CCN1CCC[C@H]1CNC(=O)c1cc(S(N)(=O)=O)ccc1OC` [Levosulpiride], the figure is -0.869; as for `COc1ccc(-c2cc3c(C)nc(N)nc3n([C@H]3CC[C@H](OCCO)CC3)c2=O)cn1`, 1.68; as for `Cn1c(=O)c(F)c(Nc2ccc(I)cc2F)c2c(=O)n(C[C@@H](O)CO)cnc21`, -0.596.
For the compound `CC1=NN(c2ccc(C(=O)O)cc2)C(=O)C1=Cc1ccc(-c2cc(C)c(C)cc2[N+](=O)[O-])o1`, the “miR-132-3p level in NGN2-iNs” value is -0.0431.
The value for `CCOC(=O)c1ccc(C#Cc2ccc3c(c2)C(C)(C)CCS3)nc1` [Tazarotene] was -1.75; that for `CNC(=O)CN1CCC(Oc2cc3c(Nc4cccc(Cl)c4F)ncnc3cc2OC)CC1` [Sapitinib (AZD8931)] was -1.17; that for `Nc1nc(N)nc(-c2cc(Cl)ccc2Cl)n1` [Irsogladine] was -0.2.
As to `CCc1c(C(=O)NCCc2ccc(N3CCCCC3)cc2)[nH]c2ccc(Cl)cc12`, the “miR-132-3p level in NGN2-iNs” value was found to be 0.258.
As for `COc1ccccc1OCCNCC(O)COc1cccc2[nH]c3ccccc3c12` (centres undefined) [Carvedilol], the figure is -1.75.
As for `CC(C)c1nc(CN(C)C(=O)N[C@H](C(=O)N[C@@H](Cc2ccccc2)C[C@H](O)[C@H](Cc2ccccc2)NC(=O)OCc2cncs2)C(C)C)cs1` [Ritonavir], the figure is -2.85.
